{"sequences": {"note": "Sequences of proteins named here, by UniProt entry; tags and fusion partners are left off. Residues count along the entry.", "UniProt O00429": "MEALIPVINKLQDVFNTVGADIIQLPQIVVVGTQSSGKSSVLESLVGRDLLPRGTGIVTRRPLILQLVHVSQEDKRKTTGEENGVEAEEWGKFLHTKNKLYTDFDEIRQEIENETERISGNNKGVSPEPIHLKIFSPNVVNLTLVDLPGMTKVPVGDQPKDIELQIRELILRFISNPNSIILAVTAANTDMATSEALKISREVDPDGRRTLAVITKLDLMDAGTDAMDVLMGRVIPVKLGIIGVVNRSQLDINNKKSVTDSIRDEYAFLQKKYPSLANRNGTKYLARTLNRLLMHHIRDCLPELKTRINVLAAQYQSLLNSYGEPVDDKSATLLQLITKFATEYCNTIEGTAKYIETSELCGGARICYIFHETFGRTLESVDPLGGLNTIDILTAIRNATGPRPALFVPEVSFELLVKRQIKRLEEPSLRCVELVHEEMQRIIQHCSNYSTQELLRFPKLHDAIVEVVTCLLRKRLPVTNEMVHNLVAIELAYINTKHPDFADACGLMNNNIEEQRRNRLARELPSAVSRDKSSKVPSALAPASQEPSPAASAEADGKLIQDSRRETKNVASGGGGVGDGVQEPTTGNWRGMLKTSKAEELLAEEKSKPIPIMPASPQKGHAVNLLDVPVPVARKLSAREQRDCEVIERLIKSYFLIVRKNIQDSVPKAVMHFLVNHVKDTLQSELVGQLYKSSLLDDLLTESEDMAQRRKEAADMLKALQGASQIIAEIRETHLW", "UniProt P07237, residues 18-508": "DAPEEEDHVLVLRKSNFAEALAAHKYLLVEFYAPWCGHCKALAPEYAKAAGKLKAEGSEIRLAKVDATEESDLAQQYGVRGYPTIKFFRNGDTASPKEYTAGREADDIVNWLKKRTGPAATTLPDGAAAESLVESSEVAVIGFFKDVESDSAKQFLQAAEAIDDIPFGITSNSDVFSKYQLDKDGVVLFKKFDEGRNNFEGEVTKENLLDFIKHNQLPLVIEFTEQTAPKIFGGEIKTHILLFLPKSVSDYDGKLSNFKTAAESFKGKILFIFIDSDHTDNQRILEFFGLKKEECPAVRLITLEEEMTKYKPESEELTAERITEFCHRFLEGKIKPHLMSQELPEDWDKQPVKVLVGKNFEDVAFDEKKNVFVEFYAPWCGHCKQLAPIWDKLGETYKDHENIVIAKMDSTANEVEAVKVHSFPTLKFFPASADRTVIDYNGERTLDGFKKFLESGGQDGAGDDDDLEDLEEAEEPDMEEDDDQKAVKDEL"}, "source": "paper PMC6324937", "key": {"[1]": {"target": "C-terminal Venus-HADrp1 (Venus-C-terminal vector expressing Drp1) (UniProt O00429)", "test": "co-IP; HEK293T cells co-transfected with the Venus vectors; immunoprecipitation with HA antibody, SDS-PAGE and immunoblotting"}, "[2]": {"target": "C-terminal Venus-HADrp1 (Venus-C-terminal vector expressing Drp1) (UniProt O00429)", "test": "split reporter; BiFC in COS1 cells co-transfected with VN-PDIA1, a VC construct and pECFP (transfection control); YFP signal read by microscopy"}}, "note": "These are yes or no findings as the source states them, for the method shown. In cells and extracts the contact can be indirect. Some results given as binding are weak or reduced against the parent protein; the word gives no strength.", "data": [{"substance": "N-terminal Venus-PDIA1 (Venus-N-terminal vector expressing PDIA1) (from UniProt P07237 18-508) (enzyme)", "values": [{"measurement": "binding", "setting": "[1]", "value": "binds"}, {"measurement": "binding", "setting": "[2]", "value": "binds"}]}]}
